Some of the results follow.
compound: COc1ccc(Cn2ccc3ccc(C(=O)NO)cc32)cc1; assay: dose-dependent thermal stabilisation call (2D-TPP, DLPTP, 10% FDR) (binary (1 = stabilised)); higher = stabilised by the compound; conditions: system: HL-60 intact cells; concentration range 0.04-10 µM

Protein sequences, listed by entry. Tags and fused reporters are not part of them. Lines headed by an entry give the natural chain unless they say otherwise; changes in a name come on top.
UniProt P38646: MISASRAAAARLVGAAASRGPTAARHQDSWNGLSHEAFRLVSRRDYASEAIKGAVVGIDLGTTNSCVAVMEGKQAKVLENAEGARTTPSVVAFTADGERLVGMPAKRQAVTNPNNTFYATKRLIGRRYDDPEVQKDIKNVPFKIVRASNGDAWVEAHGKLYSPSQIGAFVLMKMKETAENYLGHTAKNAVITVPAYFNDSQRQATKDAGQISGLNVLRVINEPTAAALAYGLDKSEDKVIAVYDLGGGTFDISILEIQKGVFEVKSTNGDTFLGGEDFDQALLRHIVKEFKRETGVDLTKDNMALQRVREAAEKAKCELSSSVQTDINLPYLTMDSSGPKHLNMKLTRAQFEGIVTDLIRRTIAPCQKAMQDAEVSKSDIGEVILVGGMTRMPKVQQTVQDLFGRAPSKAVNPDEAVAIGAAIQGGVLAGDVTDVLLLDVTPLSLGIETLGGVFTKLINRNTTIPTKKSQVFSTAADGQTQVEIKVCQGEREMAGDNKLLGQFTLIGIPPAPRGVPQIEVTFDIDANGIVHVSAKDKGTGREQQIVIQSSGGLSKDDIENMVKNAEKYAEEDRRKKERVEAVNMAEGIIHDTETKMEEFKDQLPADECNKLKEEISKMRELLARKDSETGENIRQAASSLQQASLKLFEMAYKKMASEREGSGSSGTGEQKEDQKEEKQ
UniProt Q8TEX9: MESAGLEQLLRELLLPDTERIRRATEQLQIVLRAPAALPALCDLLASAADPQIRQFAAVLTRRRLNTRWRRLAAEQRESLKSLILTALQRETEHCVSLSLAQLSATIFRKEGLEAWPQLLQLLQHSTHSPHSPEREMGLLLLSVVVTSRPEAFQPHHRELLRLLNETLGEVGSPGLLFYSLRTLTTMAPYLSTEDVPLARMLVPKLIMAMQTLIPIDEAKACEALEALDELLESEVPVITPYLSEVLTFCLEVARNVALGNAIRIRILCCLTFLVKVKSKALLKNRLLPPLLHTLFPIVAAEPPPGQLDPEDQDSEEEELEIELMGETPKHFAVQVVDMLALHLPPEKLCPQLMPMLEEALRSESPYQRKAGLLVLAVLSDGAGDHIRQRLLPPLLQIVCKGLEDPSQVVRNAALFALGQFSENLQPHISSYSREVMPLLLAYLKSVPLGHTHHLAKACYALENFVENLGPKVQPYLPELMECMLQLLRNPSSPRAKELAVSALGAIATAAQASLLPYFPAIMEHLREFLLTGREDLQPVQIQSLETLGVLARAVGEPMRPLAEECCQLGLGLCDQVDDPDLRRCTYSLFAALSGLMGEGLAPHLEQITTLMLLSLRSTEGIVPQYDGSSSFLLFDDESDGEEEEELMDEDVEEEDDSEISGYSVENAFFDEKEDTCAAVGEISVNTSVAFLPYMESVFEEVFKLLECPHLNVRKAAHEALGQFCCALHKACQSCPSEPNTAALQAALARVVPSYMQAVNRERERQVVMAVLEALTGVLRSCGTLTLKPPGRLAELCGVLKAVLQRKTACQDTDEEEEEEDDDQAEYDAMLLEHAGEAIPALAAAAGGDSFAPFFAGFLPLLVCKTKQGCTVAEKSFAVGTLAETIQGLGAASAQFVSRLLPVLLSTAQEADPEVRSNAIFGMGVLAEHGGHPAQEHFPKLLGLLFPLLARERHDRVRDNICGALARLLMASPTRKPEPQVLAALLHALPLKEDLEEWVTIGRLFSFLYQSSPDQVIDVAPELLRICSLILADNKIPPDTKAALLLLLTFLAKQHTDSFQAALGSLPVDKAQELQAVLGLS
UniProt Q9NX55: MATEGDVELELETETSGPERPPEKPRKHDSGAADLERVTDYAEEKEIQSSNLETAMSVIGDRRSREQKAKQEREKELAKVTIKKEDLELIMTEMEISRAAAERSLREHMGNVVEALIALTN
UniProt P34932: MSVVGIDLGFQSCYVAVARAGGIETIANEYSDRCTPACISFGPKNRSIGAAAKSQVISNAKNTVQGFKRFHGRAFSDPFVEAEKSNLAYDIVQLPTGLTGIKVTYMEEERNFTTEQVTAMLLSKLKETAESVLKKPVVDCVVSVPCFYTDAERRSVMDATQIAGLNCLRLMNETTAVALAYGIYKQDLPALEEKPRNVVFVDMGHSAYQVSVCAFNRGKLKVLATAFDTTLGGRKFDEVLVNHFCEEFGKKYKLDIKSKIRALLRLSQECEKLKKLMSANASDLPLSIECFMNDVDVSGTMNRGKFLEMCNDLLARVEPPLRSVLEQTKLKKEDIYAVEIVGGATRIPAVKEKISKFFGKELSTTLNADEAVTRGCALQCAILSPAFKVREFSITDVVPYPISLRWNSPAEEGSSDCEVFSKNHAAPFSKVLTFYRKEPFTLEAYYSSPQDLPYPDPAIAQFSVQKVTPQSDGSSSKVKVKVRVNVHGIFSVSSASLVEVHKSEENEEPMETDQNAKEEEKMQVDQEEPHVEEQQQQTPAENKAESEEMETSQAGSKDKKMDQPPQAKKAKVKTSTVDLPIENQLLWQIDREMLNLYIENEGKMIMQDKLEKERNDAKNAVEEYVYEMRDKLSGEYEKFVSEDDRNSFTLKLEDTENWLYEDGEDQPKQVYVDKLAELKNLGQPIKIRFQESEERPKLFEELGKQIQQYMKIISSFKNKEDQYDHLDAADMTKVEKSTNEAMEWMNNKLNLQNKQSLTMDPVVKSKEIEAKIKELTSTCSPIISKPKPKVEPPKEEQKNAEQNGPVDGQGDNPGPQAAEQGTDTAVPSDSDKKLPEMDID
UniProt O15091: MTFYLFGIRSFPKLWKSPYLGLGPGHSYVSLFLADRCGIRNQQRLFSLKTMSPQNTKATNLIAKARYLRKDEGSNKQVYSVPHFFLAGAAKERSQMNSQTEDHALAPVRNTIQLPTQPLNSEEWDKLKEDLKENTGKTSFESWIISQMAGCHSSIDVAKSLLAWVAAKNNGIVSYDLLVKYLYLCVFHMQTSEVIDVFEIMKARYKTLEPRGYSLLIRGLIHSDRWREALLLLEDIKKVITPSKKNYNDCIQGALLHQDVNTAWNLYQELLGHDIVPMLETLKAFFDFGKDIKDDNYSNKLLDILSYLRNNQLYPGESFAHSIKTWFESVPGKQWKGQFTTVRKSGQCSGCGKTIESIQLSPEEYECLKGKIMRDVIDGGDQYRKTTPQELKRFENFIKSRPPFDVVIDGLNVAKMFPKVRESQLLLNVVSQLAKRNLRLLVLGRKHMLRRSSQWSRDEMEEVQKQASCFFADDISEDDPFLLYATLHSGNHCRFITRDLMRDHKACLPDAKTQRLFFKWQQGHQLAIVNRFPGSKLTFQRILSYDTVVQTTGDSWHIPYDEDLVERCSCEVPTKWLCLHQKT
UniProt P14625, whole entry: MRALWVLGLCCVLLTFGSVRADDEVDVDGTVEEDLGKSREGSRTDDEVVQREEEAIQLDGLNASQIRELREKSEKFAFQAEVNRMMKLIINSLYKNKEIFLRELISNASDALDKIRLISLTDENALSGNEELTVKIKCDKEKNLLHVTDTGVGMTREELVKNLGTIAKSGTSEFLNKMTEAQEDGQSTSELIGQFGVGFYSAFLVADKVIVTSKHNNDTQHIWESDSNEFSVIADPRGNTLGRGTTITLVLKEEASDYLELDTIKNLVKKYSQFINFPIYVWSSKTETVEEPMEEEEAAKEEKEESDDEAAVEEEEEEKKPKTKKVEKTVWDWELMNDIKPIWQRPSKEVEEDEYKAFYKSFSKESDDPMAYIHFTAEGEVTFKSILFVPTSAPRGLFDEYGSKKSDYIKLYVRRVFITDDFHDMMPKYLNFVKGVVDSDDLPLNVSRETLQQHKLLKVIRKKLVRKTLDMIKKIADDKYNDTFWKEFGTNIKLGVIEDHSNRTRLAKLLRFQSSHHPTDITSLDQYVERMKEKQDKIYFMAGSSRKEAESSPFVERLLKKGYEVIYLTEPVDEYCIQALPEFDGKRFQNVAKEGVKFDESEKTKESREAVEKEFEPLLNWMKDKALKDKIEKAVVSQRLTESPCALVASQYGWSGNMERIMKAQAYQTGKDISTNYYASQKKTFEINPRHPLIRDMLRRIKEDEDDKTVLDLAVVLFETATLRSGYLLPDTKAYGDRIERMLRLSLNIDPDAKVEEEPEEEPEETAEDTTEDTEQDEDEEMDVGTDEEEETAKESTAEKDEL
UniProt Q9HBG6: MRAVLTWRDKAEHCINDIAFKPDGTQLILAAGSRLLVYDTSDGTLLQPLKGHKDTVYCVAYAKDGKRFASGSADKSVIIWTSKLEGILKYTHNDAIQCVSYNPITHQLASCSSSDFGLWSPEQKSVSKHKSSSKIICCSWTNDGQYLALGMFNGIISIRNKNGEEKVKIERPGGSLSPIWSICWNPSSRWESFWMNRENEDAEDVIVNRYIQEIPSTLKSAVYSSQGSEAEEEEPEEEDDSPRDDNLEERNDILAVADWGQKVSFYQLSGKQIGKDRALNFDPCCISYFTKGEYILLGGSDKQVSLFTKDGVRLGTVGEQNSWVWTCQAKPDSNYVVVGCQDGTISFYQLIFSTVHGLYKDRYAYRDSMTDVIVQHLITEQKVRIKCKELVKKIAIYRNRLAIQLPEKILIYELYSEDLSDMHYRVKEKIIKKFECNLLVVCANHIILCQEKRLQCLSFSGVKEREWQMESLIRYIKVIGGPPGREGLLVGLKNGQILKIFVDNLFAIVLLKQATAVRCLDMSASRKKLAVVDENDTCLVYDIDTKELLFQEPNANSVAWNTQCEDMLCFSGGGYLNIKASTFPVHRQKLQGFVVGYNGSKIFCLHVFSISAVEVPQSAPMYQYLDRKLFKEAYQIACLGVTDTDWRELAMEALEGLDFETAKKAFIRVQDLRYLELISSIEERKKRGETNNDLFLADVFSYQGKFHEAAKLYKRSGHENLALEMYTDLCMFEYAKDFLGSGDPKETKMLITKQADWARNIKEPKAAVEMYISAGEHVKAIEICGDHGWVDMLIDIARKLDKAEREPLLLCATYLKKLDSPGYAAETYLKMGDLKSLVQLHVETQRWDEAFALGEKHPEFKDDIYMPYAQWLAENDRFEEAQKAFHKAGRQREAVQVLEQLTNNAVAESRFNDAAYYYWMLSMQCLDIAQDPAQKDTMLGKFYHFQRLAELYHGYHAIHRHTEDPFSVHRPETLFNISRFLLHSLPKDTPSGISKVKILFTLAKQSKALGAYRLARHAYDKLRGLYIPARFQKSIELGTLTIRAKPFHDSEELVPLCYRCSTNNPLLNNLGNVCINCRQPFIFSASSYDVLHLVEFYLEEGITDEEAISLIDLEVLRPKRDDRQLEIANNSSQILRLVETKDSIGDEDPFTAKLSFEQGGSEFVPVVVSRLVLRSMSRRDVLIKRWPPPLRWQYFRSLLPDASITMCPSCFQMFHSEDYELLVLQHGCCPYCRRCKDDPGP
UniProt P58166: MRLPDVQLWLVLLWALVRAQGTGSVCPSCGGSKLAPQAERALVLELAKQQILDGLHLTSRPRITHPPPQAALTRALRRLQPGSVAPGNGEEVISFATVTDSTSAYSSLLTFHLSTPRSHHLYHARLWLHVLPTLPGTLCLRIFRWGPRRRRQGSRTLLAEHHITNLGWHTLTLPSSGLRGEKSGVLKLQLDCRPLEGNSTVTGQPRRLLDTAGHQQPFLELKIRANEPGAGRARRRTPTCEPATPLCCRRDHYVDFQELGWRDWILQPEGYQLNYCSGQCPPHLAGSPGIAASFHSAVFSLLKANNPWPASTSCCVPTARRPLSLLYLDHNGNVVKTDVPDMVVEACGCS
UniProt Q9H1K1: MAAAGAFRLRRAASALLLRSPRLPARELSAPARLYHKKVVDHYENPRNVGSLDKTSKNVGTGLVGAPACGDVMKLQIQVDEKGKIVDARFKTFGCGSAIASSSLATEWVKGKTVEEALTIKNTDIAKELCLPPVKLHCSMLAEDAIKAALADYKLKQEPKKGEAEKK
UniProt Q9NQX7: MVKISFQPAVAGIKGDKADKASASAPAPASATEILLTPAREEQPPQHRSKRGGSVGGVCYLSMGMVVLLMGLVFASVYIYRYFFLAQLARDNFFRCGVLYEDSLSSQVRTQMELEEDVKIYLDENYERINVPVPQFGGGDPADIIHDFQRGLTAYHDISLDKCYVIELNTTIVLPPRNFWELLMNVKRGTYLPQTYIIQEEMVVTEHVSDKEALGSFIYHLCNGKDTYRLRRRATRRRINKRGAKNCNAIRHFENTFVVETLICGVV
UniProt P26440: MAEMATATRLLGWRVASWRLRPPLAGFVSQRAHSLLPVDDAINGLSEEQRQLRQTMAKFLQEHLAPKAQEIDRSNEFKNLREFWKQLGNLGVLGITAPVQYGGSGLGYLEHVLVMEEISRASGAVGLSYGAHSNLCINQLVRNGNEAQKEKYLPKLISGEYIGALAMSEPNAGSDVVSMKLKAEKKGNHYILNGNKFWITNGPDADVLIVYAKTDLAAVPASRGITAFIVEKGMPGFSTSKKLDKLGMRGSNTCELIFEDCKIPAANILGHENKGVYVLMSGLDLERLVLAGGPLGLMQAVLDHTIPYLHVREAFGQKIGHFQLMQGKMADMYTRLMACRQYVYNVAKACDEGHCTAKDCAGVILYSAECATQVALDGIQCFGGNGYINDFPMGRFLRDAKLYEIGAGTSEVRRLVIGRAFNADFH

| Target | dose-dependent thermal stabilisation call |
| --- | --- |
| KIAA0020 (UniProt Q15397) | inactive: 0 |
| IRAK4 (UniProt Q9NWZ3) | inactive: 0 |
| JMJD6 (UniProt Q6NYC1) | inactive: 0 |
| KATNB1 (UniProt Q9BVA0) | inactive: 0 |
| HNRNPM (UniProt P52272) | inactive: 0 |
| JMJD4 (UniProt Q9H9V9) | inactive: 0 |
| HSPA4L (UniProt O95757) | inactive: 0 |
| HPS3 (UniProt Q969F9) | inactive: 0 |
| HSPA9 (UniProt P38646) | active: 1 |
| IPO4 (UniProt Q8TEX9) | inactive: 0 |
| ITGA6 (UniProt P23229) | inactive: 0 |
| IVNS1ABP (UniProt Q9Y6Y0) | inactive: 0 |
| KCTD6 (UniProt Q8NC69) | inactive: 0 |
| HNRNPUL2 (UniProt Q1KMD3) | inactive: 0 |
| HYPK (UniProt Q9NX55) | inactive: 0 |
| IMPDH2 (UniProt P12268) | inactive: 0 |
| HSPA4 (UniProt P34932) | inactive: 0 |
| ITFG1 (UniProt Q8TB96) | inactive: 0 |
| HNRPLL (UniProt Q8WVV9) | inactive: 0 |

| Target | dose-dependent thermal stabilisation call |
| --- | --- |
| KIAA0391 (UniProt O15091) | inactive: 0 |
| HTRA2 (UniProt O43464) | inactive: 0 |
| ITPR3 (UniProt Q14573) | inactive: 0 |
| KANK1 (UniProt Q14678) | inactive: 0 |
| HMGCS1 (UniProt Q01581) | inactive: 0 |
| HSP90B1 (UniProt P14625) | inactive: 0 |
| IFT122 (UniProt Q9HBG6) | inactive: 0 |
| INHBE (UniProt P58166) | inactive: 0 |
| KBTBD11 (UniProt O94819) | inactive: 0 |
| ICT1 (UniProt Q14197) | inactive: 0 |
| HNRNPC (UniProt P07910) | inactive: 0 |
| ISCU (UniProt Q9H1K1) | inactive: 0 |
| ITM2C (UniProt Q9NQX7) | inactive: 0 |
| IFT140 (UniProt Q96RY7) | inactive: 0 |
| HSPA14 (UniProt Q0VDF9) | inactive: 0 |
| IFI30 (UniProt P13284) | inactive: 0 |
| IVD (UniProt P26440) | inactive: 0 |
| HSD17B12 (UniProt Q53GQ0) | active: 1 |
| HYOU1 (UniProt Q9Y4L1) | inactive: 0 |

Shown comma-delimited: part of the list above.
Target,dose-dependent thermal stabilisation call
IVD (UniProt P26440),inactive: 0
HSD17B12 (UniProt Q53GQ0),active: 1

Reference: the supplement of paper PMC7666118
